Assay results: patent US20030177527A1

Target: NBS-LRR domain of the Mi-1.2 gene product (yeast two-hybrid bait) (tomato)
Assay: yeast two-hybrid, Mi-1.2 NBS-LRR domain as bait

binding: binds
B1: Interactor S-25 (PP5, TPR-Phosphatase homolog) (enzyme, not shown: large carriers; small tags and cut ends)
chain: MPGMEAENSNASRAEELKQLANEAFKGHKYSQAIDLYTQAIELNGENAVYYANRAFAHTKLEEYGSAIQDGTRAIEIDPRYSKGYYRRGAAYLAMGKFKDALKDFQQVKKLCPNDPDATKKLKECEKAVMKLKFEEAISVPESQRRSVADSIDYRSVEVEPQYAGARIEGDVVTLDFVKKMLDDFKNQKNLHKRYAYQIVLQTREMLRALPSLVDIVVPEGKHFTVCGDVHGQFYDLLNIFELNGLPSEDNPYLFNGDFVDRGSFSLEVILTLFAFKCMCPSAIHLARGNHESKSMNKIYGFEGEVRSKLSEIFVELFAEVFCCLPLAHVINEKVFVVHRGLFSVDGVKLSDIRAIDRFCEPPEEGLMCELLWSDPQPQPGRGPSKRGVGLSFGGDVTKRFLQENNLDLVVRSHEVKDEGYEIEHDGKLITVFSAPNYCDQMGNKGAFIRFEAPDMKPNIVTFSAVPHPDVKPMAYANNFLRMFS

These are yes or no findings as the source states them, for the method shown. A result given as binding can be weak or reduced; the word gives no strength.
